Taken from: PubChem BioAssay AID652272 (Drosophila RNAi Screening Center, 2013)
The screen tested about 21,000 reagents; shown is a random part of those with a known target gene and a result. In the full data, 503 (2.4%) got an active call. 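Raw plate light values, not normalised; calls rest on replicate z-scores that were not deposited; hits include reporter decreases as well as increases.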 Unmarked entries are inactive. Names joined by + are all predicted targets of the reagent. The record does not give: the amount of reagent, the time to read-out.

Assay: 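Genome-wide knock-down search for components of Hedgehog signalling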 (primary screen)
System: Drosophila clone 8 (Cl8) cells
Knock-down reagent: long dsRNA against Drosophila genes
Measured: 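Plate reader light from a firefly reporter under a ptc promoter fragment that responds to Hedgehog, with Renilla light as transfection reference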
Scale: firefly Hh reporter signal: higher = more ptc reporter light; Renilla reference signal: higher = more Renilla control light
Rule for the call: 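Called a hit if the two-replicate mean z-score lies below -2 or above +3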
Calls: active = hit: reporter lowered or raised; inactive = not a hit

For CG12491 + CG34105 [DRSC04008], what was measured?
firefly Hh reporter signal, replicate 1: 1.52e5; firefly Hh reporter signal, replicate 2: 2.35e5; Renilla reference signal, replicate 1: 3763; Renilla reference signal, replicate 2: 10567

Which result is listed for CG12491 + CG34105 [DRSC04124]?
firefly Hh reporter signal, replicate 1: 76087; firefly Hh reporter signal, replicate 2: 65928; Renilla reference signal, replicate 1: 2310; Renilla reference signal, replicate 2: 6066

For Vang [DRSC07570], what was measured?
firefly Hh reporter signal, replicate 1: 1.04e5; firefly Hh reporter signal, replicate 2: 51864; Renilla reference signal, replicate 1: 2096; Renilla reference signal, replicate 2: 5003

With Brf [DRSC13228], what does the deposit list?
firefly Hh reporter signal, replicate 1: 49025; firefly Hh reporter signal, replicate 2: 2.60e5; Renilla reference signal, replicate 1: 11059; Renilla reference signal, replicate 2: 4107

Which result is listed for Brf [DRSC14166]?
firefly Hh reporter signal, replicate 1: 84947; firefly Hh reporter signal, replicate 2: 84533; Renilla reference signal, replicate 1: 1932; Renilla reference signal, replicate 2: 2105

For Brf [DRSC14167], what was measured?
firefly Hh reporter signal, replicate 1: 71030; firefly Hh reporter signal, replicate 2: 60460; Renilla reference signal, replicate 1: 1984; Renilla reference signal, replicate 2: 1633

For yki [DRSC04437], how do the results read?
firefly Hh reporter signal, replicate 1: 1.09e5; firefly Hh reporter signal, replicate 2: 60690; Renilla reference signal, replicate 1: 4224; Renilla reference signal, replicate 2: 2571

For CG12520 [DRSC09892], what was measured?
firefly Hh reporter signal, replicate 1: 48788; firefly Hh reporter signal, replicate 2: 29242; firefly Hh reporter signal, replicate 3: 45905; Renilla reference signal, replicate 1: 2818; Renilla reference signal, replicate 2: 3211

With CG7656 [DRSC10900], what does the deposit list?
firefly Hh reporter signal, replicate 1: 1.27e5; firefly Hh reporter signal, replicate 2: 71313; Renilla reference signal, replicate 1: 5462; Renilla reference signal, replicate 2: 3174

For CG7744 [DRSC07036], what was measured?
firefly Hh reporter signal, replicate 1: 85798; firefly Hh reporter signal, replicate 2: 54534; Renilla reference signal, replicate 1: 5545; Renilla reference signal, replicate 2: 2605

Which result is listed for CG12439 [DRSC02168]?
firefly Hh reporter signal, replicate 1: 64131; firefly Hh reporter signal, replicate 2: 69290; Renilla reference signal, replicate 1: 1561; Renilla reference signal, replicate 2: 5384

With CG1907 [DRSC15399], what was measured?
firefly Hh reporter signal, replicate 1: 1.22e5; firefly Hh reporter signal, replicate 2: 1.05e5; Renilla reference signal, replicate 1: 2992; Renilla reference signal, replicate 2: 3003

For TpnC25D [DRSC02965], what was measured?
firefly Hh reporter signal, replicate 1: 85874; firefly Hh reporter signal, replicate 2: 36102; Renilla reference signal, replicate 1: 2346; Renilla reference signal, replicate 2: 4283

With l(3)07882 [DRSC15882], what was measured?
firefly Hh reporter signal, replicate 1: 1.20e5; firefly Hh reporter signal, replicate 2: 1.13e5; Renilla reference signal, replicate 1: 5706; Renilla reference signal, replicate 2: 4726

For Cpr47Ec [DRSC07332], how do the results read?
firefly Hh reporter signal, replicate 1: 1.12e5; firefly Hh reporter signal, replicate 2: 48566; Renilla reference signal, replicate 1: 2913; Renilla reference signal, replicate 2: 4336

Which result is listed for CG2310 [DRSC15438]?
firefly Hh reporter signal, replicate 1: 64404; firefly Hh reporter signal, replicate 2: 63035; Renilla reference signal, replicate 1: 1280; Renilla reference signal, replicate 2: 1523

What did the screen give for Mco1 [DRSC02720]?
firefly Hh reporter signal, replicate 1: 1.27e5; firefly Hh reporter signal, replicate 2: 75227; Renilla reference signal, replicate 1: 3756; Renilla reference signal, replicate 2: 7111

What is on record for Csl4 [DRSC02944]?
firefly Hh reporter signal, replicate 1: 1.33e5; firefly Hh reporter signal, replicate 2: 84016; Renilla reference signal, replicate 1: 4177; Renilla reference signal, replicate 2: 7376

What is on record for usp [DRSC18847]?
firefly Hh reporter signal, replicate 1: 83397; firefly Hh reporter signal, replicate 2: 2.73e5; Renilla reference signal, replicate 1: 2704; Renilla reference signal, replicate 2: 10754

For Nepl3 [DRSC02681], what does the deposit list?
firefly Hh reporter signal, replicate 1: 69616; firefly Hh reporter signal, replicate 2: 57834; Renilla reference signal, replicate 1: 3250; Renilla reference signal, replicate 2: 2688

What is on record for stac [DRSC13693]?
firefly Hh reporter signal, replicate 1: 63687; firefly Hh reporter signal, replicate 2: 1.61e5; Renilla reference signal, replicate 1: 15416; Renilla reference signal, replicate 2: 2172

Which result is listed for stac [DRSC14392]?
firefly Hh reporter signal, replicate 1: 4.12e5; firefly Hh reporter signal, replicate 2: 84225; Renilla reference signal, replicate 1: 20940; Renilla reference signal, replicate 2: 2688

What is on record for CG13465 [DRSC10011]?
firefly Hh reporter signal, replicate 1: 1.46e5; Renilla reference signal, replicate 1: 2005; Renilla reference signal, replicate 2: 3811

For Pbgs [DRSC09718], what does the deposit list?
firefly Hh reporter signal, replicate 1: 31927; firefly Hh reporter signal, replicate 2: 44548; firefly Hh reporter signal, replicate 3: 51360; Renilla reference signal, replicate 1: 4204; Renilla reference signal, replicate 2: 3265

With CG17364 [DRSC10269], how do the results read?
firefly Hh reporter signal, replicate 1: 54450; firefly Hh reporter signal, replicate 2: 43206; firefly Hh reporter signal, replicate 3: 52487; Renilla reference signal, replicate 1: 4669; Renilla reference signal, replicate 2: 1065

For CG17364 [DRSC10270], how do the results read?
firefly Hh reporter signal, replicate 1: 77430; firefly Hh reporter signal, replicate 2: 71204; firefly Hh reporter signal, replicate 3: 7.85e5; Renilla reference signal, replicate 1: 7772; Renilla reference signal, replicate 2: 5860

For Rab19 [DRSC11260], what was measured?
firefly Hh reporter signal, replicate 1: 63280; firefly Hh reporter signal, replicate 2: 53479; Renilla reference signal, replicate 1: 6338; Renilla reference signal, replicate 2: 3837

Laid out differently: 2 of the entries above
| target | DRSC id | firefly Hh reporter signal, replicate 1 | firefly Hh reporter signal, replicate 2 | firefly Hh reporter signal, replicate 3 | Renilla reference signal, replicate 1 | Renilla reference signal, replicate 2 |
| --- | --- | --- | --- | --- | --- | --- |
| Brf | DRSC13228 | 49025 | 2.60e5 | – | 11059 | 4107 |
| Brf | DRSC14166 | 84947 | 84533 | – | 1932 | 2105 |
